Laboratory results from paper PMC4773014.
Results are given in words; binding and its absence hold for the method and conditions named. In cells and extracts the contact can be indirect. Binding calls can cover weak binding; strength is not graded here. Where a sequence is shown, tags or fusion partners need not be part of it.

Molecular target: GFP substituted for the CLCA2 ectodomain, with CLCA2 TMS only (cytoplasmic tail removed) (human)
Test: co-IP; cDNAs co-transfected (HEK293T named for Fig 1); lysates immunoprecipitated and immunoblotted with antibodies to FLAG, CLCA2 (TVE20) or GFP; buffer with 0.5% NP40

B1: Epithelial V-like Antigen 1 (EVA1), FLAG-tagged (protein, UniProt O60487 27-215)
chain: VEIYTSRVLEAVNGTDARLKCTFSSFAPVGDALTVTWNFRPLDGGPEQFVFYYHIDPFQPMSGRFKDRVSWDGNPERYDASILLWKLQFDDNGTYTCQVKNPPDVDGVIGEIRLSVVHTVRFSEIHFLALAIGSACALMIIIVIVVVLFQHYRKKRWAERAHKVVEIKSKEEERLNQEKKVSVYLEDTD
With B1 the binding was “binds”.
